Results of single-concentration screens

The chains behind the UniProt entries cited, without tags or fusion partners. Residues count along the entry.
UniProt Q4DA54, 1-478: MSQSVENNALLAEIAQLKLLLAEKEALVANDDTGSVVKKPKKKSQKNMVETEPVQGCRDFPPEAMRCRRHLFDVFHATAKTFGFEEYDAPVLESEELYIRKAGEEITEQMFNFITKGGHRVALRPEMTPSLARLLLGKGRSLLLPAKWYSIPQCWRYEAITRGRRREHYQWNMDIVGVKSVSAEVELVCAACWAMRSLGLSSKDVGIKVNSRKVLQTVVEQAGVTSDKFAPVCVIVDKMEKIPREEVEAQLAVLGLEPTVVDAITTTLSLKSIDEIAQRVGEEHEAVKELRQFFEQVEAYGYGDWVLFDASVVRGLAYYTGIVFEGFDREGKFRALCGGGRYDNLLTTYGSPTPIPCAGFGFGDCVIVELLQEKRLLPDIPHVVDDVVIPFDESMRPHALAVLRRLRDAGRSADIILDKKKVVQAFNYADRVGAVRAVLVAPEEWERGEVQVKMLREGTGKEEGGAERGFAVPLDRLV
UniProt P9WNZ1, whole entry: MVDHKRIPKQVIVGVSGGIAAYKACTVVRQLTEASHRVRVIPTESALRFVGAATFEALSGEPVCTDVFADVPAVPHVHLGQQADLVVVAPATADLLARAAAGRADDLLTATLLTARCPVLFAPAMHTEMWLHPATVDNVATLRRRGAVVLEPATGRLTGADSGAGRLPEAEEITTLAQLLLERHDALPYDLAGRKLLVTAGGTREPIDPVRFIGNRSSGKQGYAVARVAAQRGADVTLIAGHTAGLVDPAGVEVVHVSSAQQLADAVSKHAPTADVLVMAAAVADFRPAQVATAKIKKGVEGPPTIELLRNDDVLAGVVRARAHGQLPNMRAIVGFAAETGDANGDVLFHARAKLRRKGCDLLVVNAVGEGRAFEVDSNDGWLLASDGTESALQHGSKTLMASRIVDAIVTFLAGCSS

A: 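Enzyme assay of histidyl-tRNA synthetase; the read-out is not stated. Target: Histidine-tRNA ligase, Trypanosoma cruzi CL Brener (UniProt Q4DA54). Compounds at 30 µM. Direction is inferred from retests: higher values go with stronger inhibition. About 69,000 compounds were tested under these conditions; 0.045% (about 31) showed 50% or more at least once.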
B: 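Enzyme assay of CoaBC with a phosphate dye (Biomol Green) read at 650 nm. Target: Coenzyme A biosynthesis protein CoaBC, Mycobacterium tuberculosis (UniProt P9WNZ1). Compounds at 30 µM. Higher reads as stronger inhibition, judged from the few compounds that gave an IC50. Most strong results did not repeat in a second test. Size under these conditions: about 67,000 compounds, about 40 of them at 50% or above in at least one test.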

The filed quantity is “Percent Effect” (%).
How 0% and 100% were set is not recorded. Most values in the screen are low, and negative values occur.
The compounds are a random part of those screened.

compound: CCCc1ccc(CN2CCC3(CCC(=O)N(CCO)C3)CC2)o1
A: 4.348
B: 12.02

compound: CS(=O)(=O)c1ccc2c(c1)N(C(=O)Cc1ccc(F)cc1)CCC2
A: 5.978
B: -5.372

compound: O=C(CCc1ccccc1)N1CCCC(c2n[nH]c3nccnc23)C1 (centres undefined)
A: 6.383
B: 2.206

compound: CC(NCCn1cccn1)c1ccccc1F (centres undefined)
A: 6.186
B: 9.89

compound: CN(C)c1cc(CNC(=O)c2cn(-c3ccc(F)cc3)nn2)ccn1
A: 0.3774
B: 0

compound: CN(CCC#N)C(=O)C(C)(C)Oc1ccc(C(N)=O)cc1
A: 3.409
B: 2.184

compound: COc1ccc(CN2CCC[C@H]2c2nc(-c3cncnc3N)no2)cc1
A: 0
B: 4.636

compound: CCCOc1ccc(C(=O)N2C[C@@H](CN3CCCC3)[C@@H](CO)C2)cc1Cl
A: 5.263

compound: O=C(c1ccno1)N1CCC2(CC(=O)N(c3ccc4c(c3)OCO4)C2)C1 (centres undefined)
A: 0
B: -9.631

compound: CC(C)(C)n1ncc2c(=O)[nH]c(NC3CC=CC3)nc21
A: 4.124
B: 13.85

compound: Cc1nnc(SCC(=O)Nc2csc3nc(=O)c(C)nn23)s1
A: -2.97
B: -1.332

compound: Cc1cc(N2CCCC(c3nccnc3N(C)C)C2)ncn1 (centres undefined)
A: 7.28
B: -8.373

compound: CCc1nc(C2CCCN2C(=O)c2ccc3c(c2)nnn3CC)no1 (centres undefined)
A: 3.396
B: -4.563

compound: O=C(c1sccc1Br)N(Cc1cccnc1)C1CC1
A: 10.85
B: 1.579

compound: N#Cc1cccc(NC(=O)N2CCC3(CCC(=O)N(C4CC4)C3)CC2)c1
A: 0.5525
B: 4.018

compound: CCCC(=O)N1CCN(c2cc(-n3cnc(C)c3C)nc(C)n2)CC1
A: 6.122
B: 0.8485

compound: NCC(CO)Cc1ccc(C(F)(F)F)cc1 (centres undefined)
A: -3.867
B: 2.93

compound: COc1ccc(-c2cnc(CN3CCCC3Cn3cncn3)o2)cc1 (centres undefined)
A: 8.081
B: -3.566

compound: Cn1[nH]c(Br)c2/c(=N\CCN)ncnc1-2
A: 4.969
B: 1.646

compound: CC(C)(C)C(=O)N1CCC2(COCc3cnc(N4CCOCC4)nc32)C1 (centres undefined)
A: -6.011
B: -3.096

compound: Cc1nn(C)c(N(C)C)c1CNC(C)COc1cccc(F)c1 (centres undefined)
A: 1.141
B: 2.635

compound: O=C(NCC1CC1)[C@H]1CN(Cc2nccs2)C[C@H]2OCC[C@@H]12
A: 2.041
B: -0.3708

compound: CN(C)C(=O)CCN1CC(c2ccccc2)(c2ccccc2)CCC1=O
A: 7.182
B: -1.373

compound: CCc1noc(C(C)N2CCNCC2)n1 (centres undefined)
A: -1.132
B: 4.302

compound: Cc1ccnc(NCc2cn3nc(C)sc3n2)n1
A: 2.762
B: 2.427

compound: Cc1nc(C(=O)N(CC(=O)N(C)C)CC(F)(F)F)c2ccccn12
A: 2.353
B: -2.703

The first 2 entries again:

{"compound": "CCCc1ccc(CN2CCC3(CCC(=O)N(CCO)C3)CC2)o1", "A": 4.348, "B": 12.02}
{"compound": "CS(=O)(=O)c1ccc2c(c1)N(C(=O)Cc1ccc(F)cc1)CCC2", "A": 5.978, "B": -5.372}

The values are deposited in ChEMBL (CHEMBL3988442, “University of Dundee, Small-Polar-MMV Screening Library” (2021)).